The data set concerns the target MarR, H2Sn-treated (Escherichia coli MG1655) (UniProt P27245). Briefly: EMSA. The settings on record: complete shift at 600 nM, single-dimer complex not detected, EMSA: 10 mM Tris, 50 mM KCl, 5% glycerin, pH 8.0, 25 C, 30 min, 20 nM probe, 15 uL, 6% native PAGE, recombinant protein, protein details: N-terminal His (pET-30a), label: none (SYBR green I stain), probe letters rebuilt from the primers and the genome. (In general: Mobility shift assays separate free from complexed probe on a gel.)

Amino acid sequences for entries named in this document (tags omitted). A change or cut given only in a name is not applied to a line headed by its entry.
UniProt P27245: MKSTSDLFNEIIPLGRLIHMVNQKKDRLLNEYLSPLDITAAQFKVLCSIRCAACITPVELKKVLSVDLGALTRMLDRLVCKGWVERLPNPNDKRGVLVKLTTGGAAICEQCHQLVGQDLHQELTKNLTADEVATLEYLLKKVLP

The exact form of at least one protein or probe is not confirmed. The comparison behind a weaker result is the experiment's own reference, which may not be listed here.

Regarding “CATCGCATTGAACAAAACTTGAACCGATTTAGCAAAACGTGGCATCGGTCAATTCATTCATTTGACTTATACTTGCCTGGGCAATATTATCCCCTGCAAC (double strand) [marRAB promoter EMSA probe]”, the binding result is recorded as “binds more weakly”.

The values above are taken from article PMC8614764, “Sulfane Sulfur Is a Strong Inducer of the Multiple Antibiotic Resistance Regulator MarR in Escherichia coli” (Antioxidants, 2021).
